The data set can be described thus: self-splicing fitness, log relative to wild type (ln ratio); higher = more splicing; Tetrahymena group I intron in knt gene, E. coli kanamycin selection, DiMSum; sequences stand for … in CUCUCU…GGAGGGAAAAGUUAUCAGGCAUGCACCUGGUAGCUAGUCUUUAAACCAAUAGAUUGCAUCGGUUUAAAAGGCAAGACCGUCAAAUUGCGGGAAAGGGGUCAACAGCCGUUCAGUACCAAGUCUCAGGGGAAACUUUGAGAUGGCCUUGCAAAGGGUAUGGUAAUAAGCUGACGGACAUGGUCCUAACCACGCAGCCAAGUCCUAAGUCAACAGAUCUUCUGUUGAUAUGGAUGCAGUUCACAGACUAAAUGUCGGUCGGGGAAGAUGUAUUCUUCUCAUAAGAUAUAGUCGGACCUCUCCUUAAUGGGAGCUAGCGGAUGAAGUGAUGCAACACUGGAGCCGCUGGGAACUAAUUUGUAUGCGAAAGUAUAUUGAUUAGUUUUGGAGUACUCGUGGUCG
A digest of the protocol: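 Colonies from six replicate transformations of E. coli BL21(DE3) were pooled and amplicon-sequenced on an Illumina HiSeq 2500. The library placed an intron with all eight P1ex-region nucleotides randomised inside the knt kanamycin-resistance gene on pET-22b(+), and cells grew overnight at 37°C or 30°C on LB agar with or without 25 μg/mL kanamycin (plus 100 μg/mL carbenicillin, 50 μM IPTG, 0.2% rhamnose). Fitness is the DiMSum error-weighted combination of wild-type-normalised replicate fold changes, kanamycin versus none.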

± gives the uncertainty stated by the source. Many of these values have a large error.

Turning to GCCUAGCAAUAUUACGUCUG, the “self-splicing fitness (ln)” value by setting is: (30 °C) -3.97 ± 0.53; (37 °C) -3.15 ± 0.6.
The matching figures for UAUGAGCAAUAUUACGCACG: -0.0624 ± 0.67 and -2.39 ± 1.1.
With AGUCAGCAAUAUUACGCGGC, the “self-splicing fitness (ln)” value (37 °C) is -3.78 ± 0.6.
As for UGGGAGCAAUAUUACGUAAU, the “self-splicing fitness (ln)” value (30 °C) was -4.4 ± 1 and the “self-splicing fitness (ln)” value (37 °C) is -1.4 ± 0.54.
As for CCUCAGCAAUAUUACGACAA, the “self-splicing fitness (ln)” value is, setting by setting: (30 °C) -1.92 ± 0.17; (37 °C) -2.31 ± 0.25.
For GCUGAGCAAUAUUACGAGUC, the “self-splicing fitness (ln)” value (30 °C) is -3.39 ± 0.53.
Take CGAAAGCAAUAUUACGAAGC: the “self-splicing fitness (ln)” value runs as follows: (30 °C) -2.9 ± 0.61; (37 °C) -2.02 ± 0.56.
In the case of AGUGAGCAAUAUUACGCCAC, for the setting “30 °C”, the “self-splicing fitness (ln)” value was -1.93 ± 1.2.
The same measure, in the same setting: the value for AGUAAGCAAUAUUACGCAAC was -3.45 ± 0.55; that for UCUGAGCAAUAUUACGCGUC was -4.17 ± 0.51; that for AUUAAGCAAUAUUACGCGAC was -1.76 ± 0.54.
Same read-out and setting: the value for CGGAAGCAAUAUUACGUAAC was -5.76 ± 1; that for CUUUAGCAAUAUUACGUCGA was -4.04 ± 1.1.
Regarding UUUAAGCAAUAUUACGCCAU, the “self-splicing fitness (ln)” value (30 °C) is -2.02 ± 1.2.
For AACUAGCAAUAUUACGCGGA, the “self-splicing fitness (ln)” value runs as follows: (30 °C) -2.25 ± 0.1; (37 °C) -1.18 ± 0.086.
Regarding UGCGAGCAAUAUUACGGUGC, where the note is “30 °C”, the “self-splicing fitness (ln)” value is -3.64 ± 0.53.
UCGUAGCAAUAUUACGUUAC: the “self-splicing fitness (ln)” value runs as follows: (30 °C) -2.09 ± 1.4; (37 °C) -4.71 ± 0.72.
Regarding CCCGAGCAAUAUUACGAAGG, the “self-splicing fitness (ln)” value (30 °C) is -4.73 ± 0.59.
Turning to GCUUAGCAAUAUUACGGAGA, the “self-splicing fitness (ln)” value by setting is: (30 °C) -2.02 ± 0.14; (37 °C) -0.596 ± 0.12.
As to CGUGAGCAAUAUUACGCCGA, the “self-splicing fitness (ln)” value (30 °C) was -2.66 ± 0.8.
The same measure, in the same setting: the same measure for UCGUAGCAAUAUUACGCCAU: -0.86 ± 0.63.
In the case of GUUGAGCAAUAUUACGCUGG, the “self-splicing fitness (ln)” value is -2.7 ± 0.55 (30 °C) and -1.67 ± 0.73 (37 °C).
Consider CUAGAGCAAUAUUACGAUUA, for which the “self-splicing fitness (ln)” value is -2.49 ± 0.23 (30 °C) and -2.26 ± 0.23 (37 °C).
GGCAAGCAAUAUUACGGAAC: the “self-splicing fitness (ln)” value is -1.46 ± 0.13 (30 °C) and 0.485 ± 0.21 (37 °C).
In the same order, the values of CCCGAGCAAUAUUACGACUC are -3.6 ± 0.78 and -0.949 ± 0.51.
In the same order, the values of UGUGAGCAAUAUUACGUAUC are -3.75 ± 0.37 and -2.3 ± 0.32.
In the same order, the values of AGUAAGCAAUAUUACGACGU are -0.0587 ± 0.09 and -0.132 ± 0.087.
Regarding UCACAGCAAUAUUACGCGAU, the “self-splicing fitness (ln)” value (30 °C) was -3.15 ± 0.54 and the “self-splicing fitness (ln)” value (37 °C) is -2.4 ± 0.51.
In the case of UAGGAGCAAUAUUACGUUAC, under “30 °C”, the “self-splicing fitness (ln)” value was -3.41 ± 0.6.
On to UAUAAGCAAUAUUACGUUCC, for which, for the setting “37 °C”, the “self-splicing fitness (ln)” value is -2.16 ± 0.56.
As for CUGUAGCAAUAUUACGUCUA, the “self-splicing fitness (ln)” value (30 °C) was -3.36 ± 0.53.
With GGAGAGCAAUAUUACGCUUU, the “self-splicing fitness (ln)” value was -3.16 ± 0.53 (30 °C) and -3 ± 0.61 (37 °C).
In the case of UUAUAGCAAUAUUACGAGCC, where the note is “37 °C”, the “self-splicing fitness (ln)” value is -2.56 ± 0.62.
For CGCGAGCAAUAUUACGCCCG, the “self-splicing fitness (ln)” value is -3.84 ± 0.61 (30 °C) and -2.5 ± 0.77 (37 °C).
The matching figures for GCGAAGCAAUAUUACGCAUG: -3.12 ± 0.44 and -2.76 ± 0.24.
Consider UCAGAGCAAUAUUACGGGGA, for which the “self-splicing fitness (ln)” value was -1.48 ± 0.11 (30 °C) and -1.1 ± 0.13 (37 °C).
As to GGUCAGCAAUAUUACGUACC, the “self-splicing fitness (ln)” value (37 °C) is 0.12 ± 0.76.
On to UUAGAGCAAUAUUACGUCAC, for which, under “30 °C”, the “self-splicing fitness (ln)” value is -3.02 ± 0.65.
As for GGGUAGCAAUAUUACGCAAA, the “self-splicing fitness (ln)” value runs as follows: (30 °C) -1.48 ± 0.74; (37 °C) 0.0662 ± 0.52.
Consider UCGGAGCAAUAUUACGACUC, for which the “self-splicing fitness (ln)” value (30 °C) was -1.96 ± 1.2.
Regarding UAUCAGCAAUAUUACGUUCC, the “self-splicing fitness (ln)” value runs as follows: (30 °C) -1.78 ± 0.84; (37 °C) -0.796 ± 0.58.
On to UUUUAGCAAUAUUACGAACA, for which the “self-splicing fitness (ln)” value (30 °C) was determined as 0.425 ± 0.8.
Regarding GUUGAGCAAUAUUACGCUAC, the “self-splicing fitness (ln)” value reads like this: (30 °C) -1.28 ± 0.49; (37 °C) -0.471 ± 0.57.
Take AAGGAGCAAUAUUACGAUCA: where the note is “37 °C”, the “self-splicing fitness (ln)” value was -1.95 ± 0.58.
Regarding CUCCAGCAAUAUUACGUCGG, the “self-splicing fitness (ln)” value was -3.14 ± 0.15 (30 °C) and -2.36 ± 0.15 (37 °C).

These data come from the supplement of paper PMC7877785.
